Source: PMC3275588, “Cellular Growth Kinetics Distinguish a Cyclophilin Inhibitor from an HSP90 Inhibitor as a Selective Inhibitor of Hepatitis C Virus” (PLoS ONE, 2012)

Tested on: luciferase-encoding HCV replicon
Assay: HCV replicon Renilla luciferase antiviral assay
Format: cell-based
Settings: Hepatitis C virus, 72 h
Method: Using a stable cell line replicating a luciferase-encoding HCV replicon, we measured viral replication levels (Renilla luciferase) across a range of drug concentrations (2 nM to 44.4 µM) three days post drug addition. In parallel, we measured intracellular esterase activity as a surrogate for cell viability using the Calcein AM reagent.
Renilla luciferase replicon cell assays were performed as previously described. Calcein AM (Anaspec, Fremont, CA) and CellTiter-Glo (Promega, Madison, WI) readouts were performed as instructed by the manufacturer.

Structure (SMILES): COc1cc2c(c(OC)c1OC)-c1ccc(OC)c(=O)cc1[C@@H](NC(C)=O)CC2 [Colchicine, colchicine]
- EC50: 9 nM
